In US9035022B2 (Salk Institute for Biological Studies, priority 2010, dated 2015):

Test: general procedure: Boc solid-phase peptide synthesis; MBHA resin; carbodiimides such as DIC, DCC
Settings: whole synthesis

| Substance | final HPLC purity (capillary zone electrophoresis (CZE) and analytical RP-HPLC at 214 nm) [%] | final HPLC purity (214 nm) [%] |
| --- | --- | --- |
| [CMP^19, Aib^24,32]-Astressin B | 94 |  |
| cyclo(30-33)[DPhe^12,Nle^21,38,Leu(Me)^27,40,Glu^30,DAph(Cbm)^32,Lys^33]Ac-hCRF (9-41); [DAph(Cbm)^24]Astressin B |  | 78 |
